# Values joined by “and” are separate entries in the source; they are usually repeats but may differ in a detail not shown here. Identical values can stand only once. At least one peptide structure holds a part that was inferred or is arguable (an end, a ring closure or a residue). No end group written: not given here.
# Key:
# fibrinogen [1] = target: T1, fibrinogen (Homo sapiens, UniProt P02671+P02675+P02679); experiment: Confirmatory binding assay in column chromatographic format: fibrinogen applied to peptide resins, NaCl wash and acid eluate quantified by A280; details: for 1 M NaCl Eluate, integration of the absorbance at 280 nm / 2% Acetic Acid Eluate, integration of the absorbance at 280 nm: truncations on A-Totda-Toyopearl, Table 6; for effect of Tween-20 in the buffer system on binding of fibrinogen: fibrinogen (100 μg) and hSA (0.5 mg) mixture, with or without 0.1% (v/v) Tween-20
# T1 construct: purchased Sigma Chemical Co. (St. Louis, Mo.) and Chromogenix AB (Molndal, Sweden)
# T1 sequence (P02671 20-644 isoform P02671-2 limits assumed): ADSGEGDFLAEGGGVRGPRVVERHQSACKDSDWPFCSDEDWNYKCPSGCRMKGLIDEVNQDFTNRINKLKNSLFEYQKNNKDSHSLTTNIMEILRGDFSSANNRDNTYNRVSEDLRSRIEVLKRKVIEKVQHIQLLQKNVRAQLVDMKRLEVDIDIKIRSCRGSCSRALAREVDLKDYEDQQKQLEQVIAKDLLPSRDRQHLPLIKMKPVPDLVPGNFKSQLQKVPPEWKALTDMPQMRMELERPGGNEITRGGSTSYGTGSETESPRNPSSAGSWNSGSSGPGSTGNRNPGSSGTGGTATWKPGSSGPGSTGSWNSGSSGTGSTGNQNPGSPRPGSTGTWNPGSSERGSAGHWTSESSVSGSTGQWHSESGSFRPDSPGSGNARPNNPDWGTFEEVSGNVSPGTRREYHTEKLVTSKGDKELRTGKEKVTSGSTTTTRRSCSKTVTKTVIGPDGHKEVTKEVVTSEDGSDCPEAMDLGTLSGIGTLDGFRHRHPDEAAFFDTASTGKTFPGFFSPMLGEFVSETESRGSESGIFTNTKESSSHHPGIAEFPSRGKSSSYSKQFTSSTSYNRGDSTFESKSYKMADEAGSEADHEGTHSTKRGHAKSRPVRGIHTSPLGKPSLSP
# T1 sequence (P02675 31-491): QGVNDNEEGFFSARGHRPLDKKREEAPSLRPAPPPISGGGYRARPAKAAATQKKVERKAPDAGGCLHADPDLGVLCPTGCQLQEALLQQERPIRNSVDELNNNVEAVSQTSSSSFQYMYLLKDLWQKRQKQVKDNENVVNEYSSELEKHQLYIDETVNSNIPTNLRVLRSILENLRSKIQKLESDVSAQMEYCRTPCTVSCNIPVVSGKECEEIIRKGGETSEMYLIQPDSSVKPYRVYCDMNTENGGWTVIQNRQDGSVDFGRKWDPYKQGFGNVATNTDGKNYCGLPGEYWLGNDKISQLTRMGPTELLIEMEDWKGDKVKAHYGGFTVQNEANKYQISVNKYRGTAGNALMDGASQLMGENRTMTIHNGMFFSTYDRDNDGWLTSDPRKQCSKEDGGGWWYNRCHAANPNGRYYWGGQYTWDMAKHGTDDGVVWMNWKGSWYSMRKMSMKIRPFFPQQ
# T1 sequence (P02679 27-453): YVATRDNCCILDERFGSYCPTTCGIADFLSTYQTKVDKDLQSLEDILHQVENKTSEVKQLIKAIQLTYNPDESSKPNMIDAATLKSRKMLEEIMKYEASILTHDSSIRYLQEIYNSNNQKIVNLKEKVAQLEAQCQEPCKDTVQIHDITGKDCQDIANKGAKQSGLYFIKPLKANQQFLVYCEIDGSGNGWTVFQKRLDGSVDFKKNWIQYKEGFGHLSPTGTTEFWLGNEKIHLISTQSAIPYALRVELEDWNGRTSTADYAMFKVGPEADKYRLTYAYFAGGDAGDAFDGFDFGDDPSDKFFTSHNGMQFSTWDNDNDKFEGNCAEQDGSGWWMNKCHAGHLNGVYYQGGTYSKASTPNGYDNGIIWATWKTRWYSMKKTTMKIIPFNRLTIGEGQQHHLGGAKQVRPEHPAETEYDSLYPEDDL
# Description: Confirmatory binding assays were performed in a column chromatographic format on a microbore HPLC using individual peptide sequences synthesized directly onto the Toyopearl 650M Chelate resin which had been modified with Totda followed by an alanine residue (A-Totda-Toyopearl), at a final substitution density of 0.2 mmole/g resin. […] The endpoint was a dose-dependent increase in the acid eluate in the fibrinogen contactings, and quantification was by integration of the absorbance at 280 nm (Table 2).
# Peptides PLLVPL and FLLVPL, with and without an N-acetylated amino terminus, were synthesized directly onto Ala-Totda-Toyopearl at a density of approximately 0.2 mmole/g resin. The ability of these resins to bind fibrinogen was determined as above. An unblocked (free) amino terminus was required for binding fibrinogen to PLLVPL-A-Totda-Toyopearl (Table 5) (SEQ ID NO:2). Similar results were obtained in a separate experiment by using FLLVPL-A-Totda-Toyopearl (Table 5) (SEQ ID NO:1).
# Truncations from the carboxyl- and amino- termini of PLLVPL and FLLVPL (SEQ ID NOS 2 and 1, respectively) synthesized directly on A-Totda-Toyopearl resin in order to identify the minimum sequence necessary for binding.
# fibrinogen [2] = target: T1, fibrinogen; experiment: Isothermal titration calorimetry of peptide binding to purified fibrinogen
# Description: Isothermal titration colorimetry was performed using either purified, soluble peptides (5 mM) or peptides synthesized directly on A-Totda-Togopearl (1.4mM) and with purified fibrinogen (50 μM) by a modification of the technique of Tyler-Cross et at. (1993). All measurements were performed at 30° C. in 30 mM phosphate buffer, pH 7.0 with an Omega titration colorimeter (Microcal, Inc., Northampton, Mass.).
# Solution phase binding isotherms were performed on the purified soluble peptides and purified fibrinogen by using isothermal titration calorimetry (Table 3). […] A change from P to F at the amino terminus lowered the dissociation constant over 150-fold. PLLVPL (SEQ ID NO:2) bound to approximately 3 to 4 sites per fibrinogen molecule. […] Both peptide binding reactions were endothermic as indicated by the positive enthalpy (ΔH), and were thermodynamically favorable (negative ΔG) under the conditions tested. Unusually high entropic terms indicate a conformational change may be driving the association of peptide with fibrinogen.
# fibrinogen [3] = target: T1, fibrinogen; experiment: Characterization of binding interaction: fibrinogen (25 mg) on 5 ml FLLVPL resin column, binding and elution under varied conditions
# Description: Peptide FLLVPL was synthesized directly on A-Totda-Toyopearl at a density of 0.2 mmole/g resin. A column of dimensions 1.0×6.4 cm (approximately 5 ml column volume) was equilibrated with either 10 mM HEPES or 10 mM sodium acetate, pH 6.8, 1.0 mM EGTA and either 0.1, 0.2 or 1.0M NaCl. Fibrinogen (25 mg; 5.0 ml) was applied to the column in 10 mM sodium acetate, pH 6.8 and 1 mM EGTA containing 0.1M NaCl.
# Fibrinogen (25 mg; 5.0 ml) was applied to the column in 10 mM sodium acetate, pH 6.8 and 1 mM EGTA containing 0.1M NaCl.
# No elution of fibrinogen (applied to the column in 10 mM sodium acetate, pH 6.8 and 1 mM EGTA containing 0.1M NaCl) was observed by using the hydrophilic compound, polyethylene glycol (10%). Only approximately 8 percent of the applied fibrinogen was eluted by increasing the pH to 10 with 10 mM sodium borate. Further increases in pH with a linear gradient (pH 6.8 to 12.0) released approximately 25 percent of the fibrinogen.
# In order to assess further the contribution of hydrophobic interactions to the binding mechanism of FLLVPL (SEQ ID NO.:1) to fibrinogen, fibrinogen (25 mg; 5.0 ml) was applied to the peptide under high salt conditions favorable to hydrophobic bonding and release under low ionic strength. The peptide resin was equilibrated with 10 mM sodium acetate, 1.0M NaCl, and 1.0 mM EGTA, pH 6.8. […]
# [4] = 250 μg fibrinogen applied, N-acetylated vs. free amino terminus, Table 5
# [5] = 250 μg fibrinogen applied, peptide synthesized on A-Totda-Toyopearl, Table 2
# [6] = 500 μg fibrinogen applied, N-acetylated vs. free amino terminus, Table 5
# [7] = 500 μg fibrinogen applied, peptide synthesized on A-Totda-Toyopearl, Table 2
# [8] = 1000 μg fibrinogen applied, N-acetylated vs. free amino terminus, Table 5
# [9] = 1000 μg fibrinogen applied, peptide synthesized on A-Totda-Toyopearl, Table 2
substance,measurement,setting,value
"FLLVPL-NH2 [FLLVPL, Phe-Leu-Leu-Val-Pro-Leu]","2% Acetic Acid Eluate, A280",fibrinogen [1]; [4],1.57
same,"2% Acetic Acid Eluate, A280",fibrinogen [1]; [5],1.54
same,"1 M NaCl Eluate, integration of the absorbance at 280 nm",fibrinogen [1]; 250 μg fibrinogen applied,0.00 ×10^6
same,"2% Acetic Acid Eluate, integration of the absorbance at 280 nm",fibrinogen [1]; 250 μg fibrinogen applied,1.04 ×10^6 and 1.57 ×10^6
same,"2% Acetic Acid Eluate, A280",fibrinogen [1]; [6],2.99
same,"2% Acetic Acid Eluate, A280",fibrinogen [1]; [7],3.23
same,"1 M NaCl Eluate, integration of the absorbance at 280 nm",fibrinogen [1]; 500 μg fibrinogen applied,0.00 ×10^6
same,"2% Acetic Acid Eluate, integration of the absorbance at 280 nm",fibrinogen [1]; 500 μg fibrinogen applied,2.03 ×10^6 and 2.99 ×10^6
same,"2% Acetic Acid Eluate, A280",fibrinogen [1]; [8],4.36
same,"2% Acetic Acid Eluate, A280",fibrinogen [1]; [9],6.92
same,"2% Acetic Acid Eluate, integration of the absorbance at 280 nm",fibrinogen [1]; 1000 μg fibrinogen applied,4.47 ×10^6 and 4.36 ×10^6
same,effect of Tween-20 in the buffer system on binding of fibrinogen,fibrinogen [1],did not affect binding
same,decrease of apparent dissociation constant versus the soluble peptide,fibrinogen [2]; FLLVPL synthesized on A-Totda-Toyopearl versus soluble FLLVPL,over 100 fold
same,lowering of the dissociation constant by change from P to F at the amino terminus,"fibrinogen [2]; FLLVPL versus PLLVPL, solution phase",over 150 fold
same,ΔG,"fibrinogen [2]; solution phase binding, 30° C.",-7.41 kcal/mol
same,ΔH,"fibrinogen [2]; solution phase binding, 30° C.",+10.9 kcal/mol
same,ΔS,"fibrinogen [2]; solution phase binding, 30° C.",+64.5 eu
same,total recovered protein in the neutralized acid eluate clottable with α-thrombin,fibrinogen [3]; pH 4.0 eluate neutralized to pH 6.9,Approximately 88.9%
same,elution of fibrinogen,fibrinogen [3]; polyethylene glycol (10%),No elution
"PLLVPL-NH2 [PLLVPL, Pro-Leu-Leu-Val-Pro-Leu]","2% Acetic Acid Eluate, A280",fibrinogen [1]; [4],0.60
same,"2% Acetic Acid Eluate, A280",fibrinogen [1]; [5],0.99
same,"1 M NaCl Eluate, integration of the absorbance at 280 nm",fibrinogen [1]; 250 μg fibrinogen applied,0.17 ×10^6 and 0.10 ×10^6
same,"2% Acetic Acid Eluate, integration of the absorbance at 280 nm",fibrinogen [1]; 250 μg fibrinogen applied,0.71 ×10^6 and 1.07 ×10^6
same,"2% Acetic Acid Eluate, A280",fibrinogen [1]; [6],1.18
same,"2% Acetic Acid Eluate, A280",fibrinogen [1]; [7],1.70
same,"1 M NaCl Eluate, integration of the absorbance at 280 nm",fibrinogen [1]; 500 μg fibrinogen applied,0.54 ×10^6 and 0.33 ×10^6
same,"2% Acetic Acid Eluate, integration of the absorbance at 280 nm",fibrinogen [1]; 500 μg fibrinogen applied,1.44 ×10^6 and 2.15 ×10^6
same,"2% Acetic Acid Eluate, A280",fibrinogen [1]; [8],2.40
same,"2% Acetic Acid Eluate, A280",fibrinogen [1]; [9],4.41
same,"1 M NaCl Eluate, integration of the absorbance at 280 nm",fibrinogen [1]; 1000 μg fibrinogen applied,1.58 ×10^6 and 1.05 ×10^6
same,"2% Acetic Acid Eluate, integration of the absorbance at 280 nm",fibrinogen [1]; 1000 μg fibrinogen applied,3.10 ×10^6 and 4.87 ×10^6
same,effect of Tween-20 in the buffer system on binding of fibrinogen,fibrinogen [1],did not affect binding
same,N (sites per fibrinogen molecule),"fibrinogen [2]; solution phase binding, 30° C.",3.45 and 3 to 4
same,ΔG,"fibrinogen [2]; solution phase binding, 30° C.",-4.38 kcal/mol
same,ΔH,"fibrinogen [2]; solution phase binding, 30° C.",+1.22 kcal/mol
same,ΔS,"fibrinogen [2]; solution phase binding, 30° C.",+18.9 eu
same,solution binding to fibrinogen (in words),"fibrinogen [2]; solution phase, compared with FLLVPL",weaker solution binding

# Reference: patent publication US5723579A, “Fibrinogen binding peptides” (Bayer Corporation, priority 1996, dated 1998)
